Measurements reported in PubChem BioAssay AID1224830 (NIAID, 2016)
Aim: 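Host factors that control LPS-induced TNF expression in human macrophages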 (primary screen). Cell system: human THP-1 monocytic leukaemia cells, TNF dual-luciferase reporter clone, PMA-differentiated to macrophage-like cells. Reagents: siRNA pool against human genes, 50 nM. Duration: LPS for 4 h, given about 3 days after siRNA transfection. Conditions: bacterial LPS (TLR4 ligand), 10 ng/ml. Read-out: 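Ratio of firefly to renilla light, scaled to the plate median and expressed as a robust z-score per replicate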. Direction: TNF reporter robust z-score: higher = stronger TNF reporter response to LPS. Call rule: 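a well is active when its z-score exceeds 2.8 or falls below -1.5; control wells carry no call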.
The whole screen tested about 18,000 reagents; below is a random part of them. About 2,900 of them (16%) were called active. 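Calls are made per well; low scores hint the gene aids the LPS response, high scores that it dampens it.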 Entries without a mark were called inactive. Repeated entries: four replicate wells of each siRNA pool.

| target gene | TNF reporter robust z-score |
| --- | --- |
| OLFML2A (olfactomedin like 2A) | -0.39 |
| OLFML2A (olfactomedin like 2A) | -0.98 |
| OLFML2A (olfactomedin like 2A) | -1.36 |
| OLFML2A (olfactomedin like 2A) | -1.08 |
| GRIN3B (glutamate ionotropic receptor NMDA type subunit 3B) | -1.14 |
| GRIN3B (glutamate ionotropic receptor NMDA type subunit 3B) | -0.74 |
| GRIN3B (glutamate ionotropic receptor NMDA type subunit 3B) | -0.82 |
| GRIN3B (glutamate ionotropic receptor NMDA type subunit 3B) | -0.88 |
| DNAH11 (dynein axonemal heavy chain 11) | -0.28 |
| DNAH11 (dynein axonemal heavy chain 11) | 0.63 |
| DNAH11 (dynein axonemal heavy chain 11) | -0.6 |
| DNAH11 (dynein axonemal heavy chain 11) | -0.56 |
| KCNE4 | -0.96 |
| KCNE4 | 0.42 |
| KCNE4 | 0.52 |
| KCNE4 | 1.18 |
| MPHOSPH8 (M-phase phosphoprotein 8) | -0.08 |
| MPHOSPH8 (M-phase phosphoprotein 8) | 0.22 |
| MPHOSPH8 (M-phase phosphoprotein 8) | 0.1 |
| MPHOSPH8 (M-phase phosphoprotein 8) | 0.17 |
| FBN1 (fibrillin 1) | -0.24 |
| FBN1 (fibrillin 1) | 0.28 |
| FBN1 (fibrillin 1) | -0.2 |
| FBN1 (fibrillin 1) | -0.42 |
| PLK1 (polo like kinase 1) | -0.4 |
| PLK1 (polo like kinase 1) | -0.68 |
| PLK1 (polo like kinase 1) | -1.31 |
| PLK1 (polo like kinase 1) | -1.43 |
| FGFR4 (fibroblast growth factor receptor 4) | -0.9 |
| FGFR4 (fibroblast growth factor receptor 4) | -0.18 |
| FGFR4 (fibroblast growth factor receptor 4) | -0.42 |
| FGFR4 (fibroblast growth factor receptor 4) | 0.4 |
| RIPOR3 (RIPOR family member 3) | -0.96 |
| RIPOR3 (RIPOR family member 3) | 1.18 |
| RIPOR3 (RIPOR family member 3) | 0.77 |
| RIPOR3 (RIPOR family member 3) | 2.43 |
| ARRB1 (arrestin beta 1) | 0.38 |
| ARRB1 (arrestin beta 1) | 1.05 |
| ARRB1 (arrestin beta 1) | -0.16 |
| ARRB1 (arrestin beta 1) | 0.51 |
| OSTF1 (osteoclast stimulating factor 1) | 0.07 |
| OSTF1 (osteoclast stimulating factor 1) | 0.36 |
| OSTF1 (osteoclast stimulating factor 1) | 0.55 |
| OSTF1 (osteoclast stimulating factor 1) | -0.5 |
| TMEM31 (transmembrane protein 31) | -0.62 |
| TMEM31 (transmembrane protein 31) | -0.54 |
| TMEM31 (transmembrane protein 31) | -0.72 |
| TMEM31 (transmembrane protein 31) | -0.18 |
| OR5F1 (olfactory receptor family 5 subfamily F member 1) | 1.52 |
| OR5F1 (olfactory receptor family 5 subfamily F member 1) | 1.12 |
| OR5F1 (olfactory receptor family 5 subfamily F member 1) | 0.29 |
| OR5F1 (olfactory receptor family 5 subfamily F member 1) | 0.23 |
| BBS2 (Bardet-Biedl syndrome 2) | 0.39 |
| BBS2 (Bardet-Biedl syndrome 2) | 1.14 |
| BBS2 (Bardet-Biedl syndrome 2) | 0.47 |
| BBS2 (Bardet-Biedl syndrome 2) | -0.18 |
| LRRC37A (leucine rich repeat containing 37A) | 0.07 |
| LRRC37A (leucine rich repeat containing 37A) | 0.92 |
| LRRC37A (leucine rich repeat containing 37A) | -0.06 |
| LRRC37A (leucine rich repeat containing 37A) | 2.17 |
| QRSL1 (glutaminyl-tRNA amidotransferase subunit QRSL1) | 1.45 |
| QRSL1 (glutaminyl-tRNA amidotransferase subunit QRSL1) | 1.12 |
| QRSL1 (glutaminyl-tRNA amidotransferase subunit QRSL1) | 1.72 |
| QRSL1 (glutaminyl-tRNA amidotransferase subunit QRSL1) | 1.33 |
| BAK1 (BCL2 antagonist/killer 1) | 2.78 |
| BAK1 (BCL2 antagonist/killer 1) | 0.66 |
| BAK1 (BCL2 antagonist/killer 1) | 1.7 |
| BAK1 (BCL2 antagonist/killer 1) | 0.21 |
| THSD7B (thrombospondin type 1 domain containing 7B) | 2.06 |
| THSD7B (thrombospondin type 1 domain containing 7B) | 1.36 |
| THSD7B (thrombospondin type 1 domain containing 7B) | 0.25 |
| THSD7B (thrombospondin type 1 domain containing 7B) | 0.34 |
| OR8U9 (olfactory receptor family 8 subfamily U member 9) | -0.35 |
| OR8U9 (olfactory receptor family 8 subfamily U member 9) | -0.07 |
| OR8U9 (olfactory receptor family 8 subfamily U member 9) | -0.01 |
| OR8U9 (olfactory receptor family 8 subfamily U member 9) | 0.37 |
| ATF7 (activating transcription factor 7) | -2.36 (active) |
| ATF7 (activating transcription factor 7) | -2.23 (active) |
| ATF7 (activating transcription factor 7) | -2.33 (active) |
| ATF7 (activating transcription factor 7) | -1.97 (active) |
| DUSP8 (dual specificity phosphatase 8) | 1.08 |
| DUSP8 (dual specificity phosphatase 8) | -0.19 |
| DUSP8 (dual specificity phosphatase 8) | 0.03 |
| DUSP8 (dual specificity phosphatase 8) | 1.81 |
| BAGE2 (BAGE family member 2 (pseudogene)) | -0.9 |
| BAGE2 (BAGE family member 2 (pseudogene)) | 0.16 |
| BAGE2 (BAGE family member 2 (pseudogene)) | 0.26 |
| BAGE2 (BAGE family member 2 (pseudogene)) | -0.91 |
| ZNF117 (zinc finger protein 117) | -1.08 |
| ZNF117 (zinc finger protein 117) | -0.6 |
| ZNF117 (zinc finger protein 117) | -0.77 |
| ZNF117 (zinc finger protein 117) | 0.19 |
| TMEM108 (transmembrane protein 108) | -0.4 |
| TMEM108 (transmembrane protein 108) | -0.33 |
| TMEM108 (transmembrane protein 108) | -0.21 |
| TMEM108 (transmembrane protein 108) | 0.54 |
| NUS1 (NUS1 dehydrodolichyl diphosphate synthase subunit) | 0.57 |
| NUS1 (NUS1 dehydrodolichyl diphosphate synthase subunit) | -0.88 |
| NUS1 (NUS1 dehydrodolichyl diphosphate synthase subunit) | -1.01 |
| NUS1 (NUS1 dehydrodolichyl diphosphate synthase subunit) | 0.01 |
| HSPB6 (heat shock protein family B (small) member 6) | 0.43 |
| HSPB6 (heat shock protein family B (small) member 6) | 1.62 |
| HSPB6 (heat shock protein family B (small) member 6) | 1.87 |
| HSPB6 (heat shock protein family B (small) member 6) | 0.46 |
| DZIP1 (DAZ interacting zinc finger protein 1) | 1.32 |
| DZIP1 (DAZ interacting zinc finger protein 1) | 1.02 |
| DZIP1 (DAZ interacting zinc finger protein 1) | 0.45 |
| DZIP1 (DAZ interacting zinc finger protein 1) | 1.89 |
| PHF7 (PHD finger protein 7) | 0.06 |
| PHF7 (PHD finger protein 7) | 1.43 |
| PHF7 (PHD finger protein 7) | 0.38 |
| PHF7 (PHD finger protein 7) | 3.11 (active) |

Already shown: entries from further up.
| target gene | TNF reporter robust z-score |
| --- | --- |
| FBN1 (fibrillin 1) | -0.2 |
| FBN1 (fibrillin 1) | -0.42 |
| PLK1 (polo like kinase 1) | -0.4 |
| PLK1 (polo like kinase 1) | -0.68 |
| PLK1 (polo like kinase 1) | -1.31 |
| PLK1 (polo like kinase 1) | -1.43 |
| FGFR4 (fibroblast growth factor receptor 4) | -0.9 |
